Values quoted from earlier work in US20150071857A1, “STEROID HORMONE AND CHOLESTEROL PATHWAYS AS ONE UNIFIED HOMEOSTATIC SYSTEM” (LIGAND PHARMACEUTICALS, INC., priority 2012, published 2015).
For at least one compound, name, drawing or mass did not settle the structure.

Assays:
[1] = oral E2, postmenopausal women
[2] = short term treatment, healthy volunteers

In the case of C[C@]12CC[C@@H]3c4ccc(O)cc4CC[C@H]3[C@@H]1CC[C@@H]2O [E2, estradiol], the estrone level increase [1] is listed as “more than 10 fold”.

In the case of C[C@@H]1C[C@H]2[C@@H]3CCC4=CC(=O)C=C[C@]4(C)[C@@]3(F)[C@@H](O)C[C@]2(C)[C@@]1(O)C(=O)CO [dexamethasone], the HDL-C change [2] is given as “elevated” and the LDL-C change [2] is given as “little LDL-C change”.
